Whole data set: some 33,000 sequences, median “E-score (-0.5 to 0.5)” near -8e-05, cut for the highest 2% near 0.23. The list shows a part of the results.
Target: T1, Nrg2 (UniProt P38082)
T1 sequence: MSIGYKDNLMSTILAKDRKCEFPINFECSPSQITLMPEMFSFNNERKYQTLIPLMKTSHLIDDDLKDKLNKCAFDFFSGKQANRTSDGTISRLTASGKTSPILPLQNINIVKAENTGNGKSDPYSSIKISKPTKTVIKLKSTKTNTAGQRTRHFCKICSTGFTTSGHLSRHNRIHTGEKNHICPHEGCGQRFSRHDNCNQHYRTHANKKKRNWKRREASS
Assay: PBM E-score (8-mer binding enrichment) (E-score (-0.5 to 0.5)); higher = stronger / more preferred TF binding
Conditions: protein concentration: 100 nM; construct: GST-full length
Procedure, shortened: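 E-scores (a modified Wilcoxon-Mann-Whitney statistic) were assigned by the Universal PBM Analysis Suite to every ungapped eight-base word pooled with its reverse complement. The input came from universal all-10-mer Agilent arrays made double-stranded by primer extension and probed with GST-tagged yeast transcription factors at about 100-200 nM. Fluorescent anti-GST detected bound protein, and masliner normalised the scans.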

First: ACATGCCT
Second: ATTTCACA
The “PBM E-score” value of the first is lower: -0.16 for the first, 0.118 for the second.

Compared with TATTGTCA, ATTCTGAG is lower in “PBM E-score” value: 0.172 for the first, -0.0119 for the second.

Going from ACCGCCGA to CTTACAAA, the “PBM E-score” value falls from -0.0213 to -0.053.

Going from CGCGATCC to GAGATCCA, the “PBM E-score” value falls from 0.13 to 0.117.

First: GACAATGC
Second: TAGTTATA
The “PBM E-score” value of the first is higher: 0.131 for the first, 0.074 for the second.

First: ACACGAAA
Second: GTCAATTA
The “PBM E-score” value of the first is higher: 0.121 for the first, -0.0941 for the second.

Compared with ACGGTGCG, AGAGATTC is higher in “PBM E-score” value: 0.0486 for the first, 0.0502 for the second.

Compared with GGCAACAA, AGATCTGG is lower in “PBM E-score” value: 0.105 for the first, -0.109 for the second.

Going from AATTCCGA to GTGGGCAA, the “PBM E-score” value falls from 0.193 to -0.0781.

First: AAGTCGCC
Second: CAGGCAAA
The “PBM E-score” value of the first is lower: -0.161 for the first, 0.00804 for the second.

First: ACCCCACG
Second: ATCGGAAC
The “PBM E-score” value of the first is lower: -0.0135 for the first, 0.139 for the second.

First: CCTGGACC
Second: GCGCTAAC
The “PBM E-score” value of the first is higher: 0.0897 for the first, -0.0647 for the second.

First: CCAGAGCG
Second: ACGTCTAC
The “PBM E-score” value of the first is higher: -0.164 for the first, -0.203 for the second.

First: AAATCCCC
Second: ATGCTCGC
The “PBM E-score” value of the first is lower: -0.0879 for the first, 0.0413 for the second.

Compared with AGCCTGAA, CTAACTAA is higher in “PBM E-score” value: -0.0391 for the first, -0.0143 for the second.

Compared with AACTTGGC, ACCATTGG is higher in “PBM E-score” value: -0.0216 for the first, 0.0751 for the second.

Going from ACTCCCTC to ACTGACGG, the “PBM E-score” value rises from -0.249 to -0.161.

First: GACGCATA
Second: ACACACTC
The “PBM E-score” value of the first is higher: 0.124 for the first, 0.114 for the second.

Compared with AACGCCTA, CATGAATA is lower in “PBM E-score” value: -0.0314 for the first, -0.151 for the second.

Compared with AAGTGTGG, CATCGACA is lower in “PBM E-score” value: -0.0298 for the first, -0.0342 for the second.

Going from ATCACACA to ACCCCGAG, the “PBM E-score” value falls from 0.171 to -0.0836.

Going from CGGGAACG to GGAGCGGA, the “PBM E-score” value rises from -0.128 to 0.0266.

Compared with AGTCCTCG, AGGCCTGC is higher in “PBM E-score” value: -0.0433 for the first, -0.0378 for the second.

First: ATAGTAAA
Second: TGATCAAA
The “PBM E-score” value of the first is higher: 0.203 for the first, 0.0524 for the second.

First: CAACCCGG
Second: GAAATAGC
The “PBM E-score” value of the first is lower: -0.0791 for the first, 0.0102 for the second.

Going from CTGCGGCA to CGTTACCC, the “PBM E-score” value rises from -0.208 to -0.108.

Compared with CCAGTCAC, AACCGCCA is higher in “PBM E-score” value: -0.262 for the first, -0.104 for the second.

Going from GTTTCAGA to GACGTACA, the “PBM E-score” value falls from -0.0172 to -0.0211.

Going from AGAGAGTC to AGCGAGCC, the “PBM E-score” value rises from -0.138 to -0.0381.

Compared with ACCCAAGA, CCGTCGGC is lower in “PBM E-score” value: -0.0784 for the first, -0.226 for the second.

Going from AAAATTGC to CAACTTGC, the “PBM E-score” value rises from -0.0548 to 0.0266.

Compared with GTGGGAGA, CGACCGAG is higher in “PBM E-score” value: -0.161 for the first, 0.0733 for the second.

Going from ATGGTTCC to CAATGGTG, the “PBM E-score” value falls from 0.0737 to -0.125.

Going from CATCGAGA to AAAATGTC, the “PBM E-score” value falls from 0.0688 to -0.0272.

First: CGCGCACA
Second: AGCTCTGG
The “PBM E-score” value of the first is higher: 0.106 for the first, -0.136 for the second.

First: ATGCTAAC
Second: ACTCCGAC
The “PBM E-score” value of the first is lower: -0.0282 for the first, -0.0221 for the second.

Compared with AGACCGCT, CCACCTAA is higher in “PBM E-score” value: -0.155 for the first, -0.0686 for the second.

Compared with CATAACAA, ACGGGTGG is lower in “PBM E-score” value: 0.203 for the first, 0.00221 for the second.

First: CTCAGAAG
Second: CGTTAGAA
The “PBM E-score” value of the first is lower: -0.156 for the first, -0.154 for the second.

Compared with ACTTCCTA, AGCGCGTC is lower in “PBM E-score” value: 0.0166 for the first, -0.0322 for the second.

Compared with ACACTAAA, GCAGCACC is lower in “PBM E-score” value: 0.271 for the first, -0.17 for the second.

Going from CTGGGTCC to CCATGTCC, the “PBM E-score” value rises from -0.288 to -0.092.

Compared with CGAACGTA, GGCCGCAA is higher in “PBM E-score” value: -0.0451 for the first, 0.0227 for the second.

First: AATGTCGT
Second: ACGGACCC
The “PBM E-score” value of the first is lower: 0.033 for the first, 0.081 for the second.

Going from AGAAAACT to GCGAACCC, the “PBM E-score” value rises from -0.0407 to 0.167.

Going from ACGTAAAT to AGAGACAC, the “PBM E-score” value rises from -0.131 to -0.0137.

First: CATATTGA
Second: AGCCCGGA
The “PBM E-score” value of the first is higher: -0.0238 for the first, -0.118 for the second.

First: CATTGGAG
Second: CAAACGCA
The “PBM E-score” value of the first is higher: 0.0158 for the first, -0.104 for the second.

Compared with CGGTGCTA, CATCTAAC is lower in “PBM E-score” value: -0.0189 for the first, -0.152 for the second.

First: GACATCAC
Second: CCCCTGCA
The “PBM E-score” value of the first is lower: -0.0431 for the first, -0.00126 for the second.

First: CAGTGGGC
Second: CAATGGCC
The “PBM E-score” value of the first is higher: -0.00236 for the first, -0.178 for the second.

First: CGGGTGCA
Second: GTAACTAA
The “PBM E-score” value of the first is lower: -0.0669 for the first, 0.0975 for the second.

First: AATGACTC
Second: ACAAGAGA
The “PBM E-score” value of the first is lower: -0.202 for the first, 0.24 for the second.

First: AATGACAG
Second: GACTTGCC
The “PBM E-score” value of the first is higher: 0.0722 for the first, -0.134 for the second.

First: ATACATTC
Second: CTAGGCAA
The “PBM E-score” value of the first is higher: -0.0371 for the first, -0.162 for the second.

First: CATCACGA
Second: CTCTGTCC
The “PBM E-score” value of the first is lower: -0.199 for the first, -0.0333 for the second.

First: AACGTGGG
Second: CAATGTTC
The “PBM E-score” value of the first is lower: -0.202 for the first, 0.00207 for the second.

Compared with ATGCTCTG, AGCATCCG is lower in “PBM E-score” value: -0.116 for the first, -0.129 for the second.

Compared with CCTCTCGA, ACGGCGCC is higher in “PBM E-score” value: -0.179 for the first, -0.0618 for the second.

First: GGATTGTA
Second: ACCTACGT
The “PBM E-score” value of the first is lower: -0.0569 for the first, 0.00416 for the second.

Compared with CAACCCTG, CTACGAAG is lower in “PBM E-score” value: 0.252 for the first, -0.169 for the second.

First: GGGACTTA
Second: CATGCACA
The “PBM E-score” value of the first is lower: 0.112 for the first, 0.143 for the second.

First: GCGCATGA
Second: ATCGCACA
The “PBM E-score” value of the first is lower: -0.0314 for the first, 0.022 for the second.

First: CCTATTTC
Second: CGTACTCC
The “PBM E-score” value of the first is higher: 0.173 for the first, -0.143 for the second.

Going from CCTGTATA to ACATTAAA, the “PBM E-score” value rises from 0.0265 to 0.143.

Going from ATTTGGAG to GAGACGTA, the “PBM E-score” value rises from -0.0394 to 0.0534.

Going from TCTGAGCA to ACCCTATC, the “PBM E-score” value rises from -0.0828 to 0.129.

Going from AAGCTTAG to CGACAGGA, the “PBM E-score” value falls from 0.107 to 0.0965.

First: AGTCATAT
Second: ACCGATCG
The “PBM E-score” value of the first is higher: 0.0126 for the first, -0.0446 for the second.

Going from GTCAGCCA to AGTGCTAA, the “PBM E-score” value rises from -0.107 to -0.0814.

First: TACCTCCA
Second: ACACTACC
The “PBM E-score” value of the first is higher: -0.0804 for the first, -0.141 for the second.

Going from GCGCGGTA to AGGGATTG, the “PBM E-score” value falls from 0.271 to 0.118.

Going from CAACAAGC to ACCGAAAA, the “PBM E-score” value rises from 0.0591 to 0.161.

First: ATATAGGC
Second: GGGGCTAA
The “PBM E-score” value of the first is higher: 0.118 for the first, -0.0626 for the second.

Compared with GGGTGCTA, AACCTTAA is higher in “PBM E-score” value: -0.0127 for the first, 0.293 for the second.

First: GCAATTGC
Second: AAAGTCTC
The “PBM E-score” value of the first is higher: 0.0706 for the first, -0.204 for the second.

First: TGATTTAA
Second: CCACGTGA
The “PBM E-score” value of the first is higher: 0.109 for the first, -0.0788 for the second.

Going from ACAGCGAG to CCAATAGA, the “PBM E-score” value rises from -0.0664 to -0.0435.

First: AACCGTGC
Second: ACATTCTA
The “PBM E-score” value of the first is higher: 0.0462 for the first, -0.0515 for the second.

Compared with CGATACCA, GGGTATAA is lower in “PBM E-score” value: 0.124 for the first, 0.0367 for the second.

Going from CGGTAGCC to CTGACTAA, the “PBM E-score” value rises from -0.05 to 0.0258.

Going from GAAGAATC to CTGTATCA, the “PBM E-score” value falls from -0.0943 to -0.108.

First: AGTGGGAA
Second: ATTGTTGG
The “PBM E-score” value of the first is lower: -0.0158 for the first, 0.21 for the second.

First: CAGTTCGA
Second: CACTCTGA
The “PBM E-score” value of the first is higher: 0.0869 for the first, -0.182 for the second.

Going from CCGGGTAA to GACTACCA, the “PBM E-score” value falls from 0.145 to -0.155.

First: CGAGCCCC
Second: GAGGCTGC
The “PBM E-score” value of the first is lower: -0.154 for the first, -0.111 for the second.

Source: the supplement of paper PMC3334620
